These are yes or no findings as the source states them, for the method shown. Binding seen in cells or lysates may run through a third protein. Here binding means that the protein was enriched with, or labelled near, the bait; the list need not be complete. Tags and fused reporters may be left off the sequences shown.

These results are taken from paper PMC7515705.

This experiment deals with T1, YBEY-3 × FLAG (human) (UniProt P58557).
T1 sequence: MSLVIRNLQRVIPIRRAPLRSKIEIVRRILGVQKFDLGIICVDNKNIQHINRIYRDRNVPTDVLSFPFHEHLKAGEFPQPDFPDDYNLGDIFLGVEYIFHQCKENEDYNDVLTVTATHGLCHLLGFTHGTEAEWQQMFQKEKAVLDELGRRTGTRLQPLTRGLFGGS
The experiment can be described thus: affinity purification with mass spectrometry; α-FLAG antibody and protein A-sepharose on mitochondrial lysates (0.5% n-dodecyl-β-D-maltoside, 20 mM Tris-HCl pH 7.5, 150 mM KCl, 4°C) of SAL001 cells expressing YBEY-3 × FLAG; parental Flp-In T-REx 293 as control; LC-MS/MS, spectral counts; YBEY:p32 stoichiometry from spectral abundance factors.

In the case of uS11m, endogenous, the binding entry is listed as “binds”.
